Data published in PubChem BioAssay AID1671190 (National Center for Advancing Translational Sciences (NCATS), 2021).
The whole screen tested about 580,000 compounds, of which about 6,100 (1.1%) were called active. The shares of active, inactive and inconclusive entries below differ from those in the screen. The call rests on the fitted dose curve; in most records, active means well fitted inhibition curve with a large enough effect; inconclusive means small, poorly fitted or top-dose-only effect, or another doubt; inactive means no such curve, though single readings can be large or run the other way. Potencies beside an inconclusive call are fits to weak or partial responses and may not hold up.

The chains behind the UniProt entries cited, without tags or fusion partners. Where a name states a change or a piece, a line headed by the entry shows the natural chain unless it says otherwise.
UniProt P18054: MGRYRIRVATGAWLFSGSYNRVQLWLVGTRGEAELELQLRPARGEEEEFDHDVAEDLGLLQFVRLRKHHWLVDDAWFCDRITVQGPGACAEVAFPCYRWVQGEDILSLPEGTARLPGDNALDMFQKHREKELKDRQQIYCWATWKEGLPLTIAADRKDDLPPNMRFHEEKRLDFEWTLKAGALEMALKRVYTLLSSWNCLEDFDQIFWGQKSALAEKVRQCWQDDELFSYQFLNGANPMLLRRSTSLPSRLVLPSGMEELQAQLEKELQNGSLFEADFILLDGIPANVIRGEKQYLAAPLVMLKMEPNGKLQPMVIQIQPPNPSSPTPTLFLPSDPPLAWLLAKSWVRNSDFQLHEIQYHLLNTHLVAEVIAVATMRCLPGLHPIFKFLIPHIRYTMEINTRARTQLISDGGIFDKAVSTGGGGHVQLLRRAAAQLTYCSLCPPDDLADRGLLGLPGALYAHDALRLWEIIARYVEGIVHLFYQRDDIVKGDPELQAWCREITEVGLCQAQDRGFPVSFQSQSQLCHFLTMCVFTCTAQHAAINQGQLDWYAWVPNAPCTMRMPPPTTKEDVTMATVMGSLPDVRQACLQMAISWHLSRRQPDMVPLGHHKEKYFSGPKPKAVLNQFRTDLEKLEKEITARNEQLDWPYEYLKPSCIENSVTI

Biological target: Polyunsaturated fatty acid lipoxygenase ALOX12 (Homo sapiens) (UniProt P18054)
Test: Primary qHTS assay for inhibitors of human arachidonate 12S-lipoxygenase (ALOX12): Round 2
Conditions: purified 12hLO, xylenol orange hydroperoxide absorbance; activity change, negative = inhibition: at 108 µM (top of the series) unless noted
Method in brief: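 Hydroperoxide product was detected by ferrous iron/xylenol orange as the 573 to 405 nm absorbance ratio. Arachidonic acid at 40 uM (final) was turned over for 30 min at room temperature by 150 nM human 12hLO, pH 7.0 Hepes buffer, after 15 min compound preincubation.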
On the % scale 0 is the no-effect control and ±100 the full control effect; potency means the concentration at half of the fitted maximal effect.

Compound | Potency | activity change, negative = inhibition
COC(=O)C1=C(C)NC2=C(C(=O)C(C(=O)OC)C(c3ccc(OC)cc3)C2)C1c1ccccn1 (centres undefined) | inconclusive: 31.6 µM [inhibitor, partial curve, poor fit] | 
O=C(Nc1ccc(F)cc1)N[C@H]1CC[C@H](CCNS(=O)(=O)c2cccc(Cl)c2)O[C@@H]1CO | inconclusive: 79.4 µM [inhibitor, partial curve, poor fit] | 
CCCn1c(NCc2ccco2)nc2c1c(=O)n(C)c(=O)n2C | inactive | 
Cc1ccccc1CNC(=O)COC(=O)c1cc2ccccc2[nH]1 | inconclusive: 44.7 µM [inhibitor, partial curve, poor fit] | 
CC(C)c1cc(C(N)=O)c(NC(=O)c2cccc(COc3ccc(Br)cc3)c2)s1 | inconclusive: 1.26 µM [inhibitor, full curve, poor fit] | 
COc1ccc(-c2nn[nH]n2)cc1OC |  | inactive: 3.14%
CCOc1ccc(-c2c(C(=O)N/N=C(\C)c3cccs3)nnn2-c2nonc2N)cc1 |  | inactive: 1.49%
S=c1[nH]cc(-c2ccccc2)n1-c1ccccc1 | inconclusive: 5.01 µM [inhibitor, partial curve, poor fit] | 
CC1(C)SC2c3ccccc3C(=O)N2C1C(=O)O (centres undefined) | inconclusive: 7.08 µM [inhibitor, full curve] | 
O=C(CN1CCN(c2ccccc2)CC1)N1N=C(c2cc3ccccc3o2)CC1c1ccco1 (centres undefined) | inconclusive: 15.8 µM [inhibitor, partial curve, poor fit] | 
CCc1ccc(Nc2cc(C(=O)NCCCN(C)c3ccccc3)c3ccccc3n2)cc1 |  | inactive: -16.9%
CC1CCN(C(=O)c2[nH]cnc2C(=O)Nc2ccc(Cl)cc2)CC1 | inconclusive: 44.7 µM [inhibitor, partial curve, poor fit] | 
Cn1cc(S(=O)(=O)N2CCC(C(=O)Nc3cccc(F)c3)CC2)cc1C(N)=O |  | inactive: -0.291%
C=CCOc1ccc(/C(O)=C2\C(=O)C(=O)N(CCOC)C2c2cccnc2)cc1 (centres undefined) | active: 39.8 µM | 
CCn1c(=O)n(-c2ccc(Cl)cc2)c(=O)c2c3c(sc21)COC(C)(C)C3 |  | inactive: -15.2%
CC1CCN(c2ccc(NC(=O)c3ccc(Br)o3)cc2)CC1 |  | inactive: 0%
O=C1[C@H]2CCC=C[C@H]2[C@H](c2ccccc2Br)N1Cc1ccccc1 | inconclusive: 35.5 µM [inhibitor, partial curve, poor fit] | 
O=C(C=Cc1cccc(O)c1)c1ccccc1O | inconclusive: 79.4 µM [inhibitor, partial curve, poor fit] | 
Clc1ccccc1/C=N/N1CCN(Cc2ccccc2)CC1 | inconclusive: 2 µM [inhibitor, partial curve, poor fit] | 
CC(C)Oc1ccc(Nc2cc3c(cn2)cc(-c2cccc(C(F)(F)F)c2)n3C)cc1 | inconclusive: 89.1 µM [inhibitor, partial curve, poor fit] | 
CCCN1CCc2c(sc(NC(=O)c3ccc(S(=O)(=O)N4CCN(C(=O)OCC)CC4)cc3)c2C(N)=O)C1 | inconclusive: 3.16 µM [inhibitor, full curve, poor fit] | 
Clc1ccc(-c2cnnc(-c3ccccn3)n2)cc1 |  | inactive: 2.35%

Molecules from the list above that contain an aryl methoxy group, in the order listed:
Compound | Potency | activity change, negative = inhibition
COC(=O)C1=C(C)NC2=C(C(=O)C(C(=O)OC)C(c3ccc(OC)cc3)C2)C1c1ccccn1 (centres undefined) | inconclusive: 31.6 µM [inhibitor, partial curve, poor fit] | 
COc1ccc(-c2nn[nH]n2)cc1OC |  | inactive: 3.14%

Following part.

Compound | Potency | activity change, negative = inhibition
O=C(Nc1nnc(-c2ccc3c(c2)CCCC3)o1)C1CCCCC1 |  | inactive: 25.1% [at 57.4 µM]
Cc1c(CO)[nH]c2ccc(Br)cc12 | inconclusive: 28.2 µM [inhibitor, full curve, poor fit] | 
O=C(Nc1ccc(-n2cccc2)cc1)C1=COC2=NC(=O)N(Cc3ccccc3)CCN12 |  | inactive: 2.63%
O=S(=O)(CCNCCc1ccccc1)NC1CCCCC1 | inconclusive: 44.7 µM [inhibitor, partial curve, poor fit] | 
CCc1ccc(C(=O)CSc2n[nH]c(-c3ccncc3)n2)cc1 |  | inactive: 2.44% [at 57.4 µM]
COC(=O)c1cccc(C23CC4(C2)[C@H](CN(Cc2ccc(C(F)(F)F)cc2)[C@@H]4c2ccccc2)C3c2ccc(Cl)nc2)c1 (some centres undefined) |  | inactive: -22.1%
CCc1cc(CC)n(-c2nc3c(c(=O)n(Cc4ccc(F)cc4)c(=O)n3C)n2C)n1 | inconclusive: 11.2 µM [inhibitor, single point] | 
CCn1nc(CNC(=O)C(c2cccnc2)N2CCOCC2)c2ccccc21 (centres undefined) |  | inactive: -19.5%
CC(Sc1ccccn1)C(=O)NC(C)c1ccc(F)cc1 (centres undefined) | inconclusive: 31.6 µM [inhibitor, partial curve, poor fit] | 
CCOC(=O)C1=C(N)Oc2c(c(=O)[nH]c3ccccc23)C1c1ccccc1 (centres undefined) |  | inactive: 0%
O=S(=O)(c1ccc(-c2ccccn2)s1)N1CCC2(CC1)OCCO2 | inconclusive: 126 µM [inhibitor, single point] | 
CC(C)(C)c1cc(SC2(Sc3cc(C(C)(C)C)c(O)c(C(C)(C)C)c3)C(=O)Nc3ccccc32)cc(C(C)(C)C)c1O | inconclusive: 3.98 µM [inhibitor, full curve, poor fit] | 
COc1ccc(Cn2ccc3nc(C)c(C(=O)N4CCN(c5cc(C)ccc5C)CC4)cc3c2=O)cc1 |  | inactive: 2.58%
C=CCn1c(SCCOc2ccccc2)nnc1C(C)NC(=O)c1ccccc1 (centres undefined) |  | inactive: -7.6%
CCNC(=S)N(Cc1cc2cc(C)c(C)cc2[nH]c1=O)C1CCCC1 | inconclusive: 70.8 µM [inhibitor, partial curve, poor fit] | 
O=C(COC(=O)c1ccc(Br)o1)Nc1cccc(S(=O)(=O)N2CCCCC2)c1 | inconclusive: 50.1 µM [inhibitor, partial curve, poor fit] | 
C[C@@H]1CC[C@]2(C(=O)O[C@@H]3O[C@H](CO)[C@@H](O)[C@H](O)[C@H]3O)CC[C@]3(C)C(=CCC4[C@@]5(C)CC[C@H](O[C@@H]6OC[C@H](O)[C@H](O[C@@H]7O[C@H](CO)[C@@H](O)[C@H](O)[C@H]7O)[C@H]6O)C(C)(C)C5CC[C@]43C)C2[C@]1(C)O (some centres undefined) | inconclusive: 112 µM [inhibitor, single point] | 
Cc1ccc(CN[C@@H]2CO[C@H](CNC(=O)Nc3ccccc3)[C@H]2O)cc1 | inconclusive: 63.1 µM [inhibitor, partial curve] | 
FC(F)(F)c1ccccc1-c1cc(NCc2cccnc2)ncn1 | active: 44.7 µM | 
CCc1cc(=O)n(CC(=O)Nc2cccc(Cl)c2C)c(N2CCOCC2)n1 | inconclusive: 70.8 µM [inhibitor, partial curve, poor fit] | 
Cc1ccc(S(=O)(=O)c2nc(S(=O)(=O)c3ccc(C)cc3)c(NC(C)C)s2)cc1 |  | inactive: -8.94%
Cc1cccc(C(=O)Nc2ccc(C(=O)N/N=C/c3ccco3)cc2)c1 |  | inactive: -2.94%

An excerpt of these results, as comma-separated lines:
Compound,Potency,"activity change, negative = inhibition"
CC1CCN(C(=O)c2[nH]cnc2C(=O)Nc2ccc(Cl)cc2)CC1,"inconclusive: 44.7 µM [inhibitor, partial curve, poor fit]",
CC(C)(C)c1cc(SC2(Sc3cc(C(C)(C)C)c(O)c(C(C)(C)C)c3)C(=O)Nc3ccccc32)cc(C(C)(C)C)c1O,"inconclusive: 3.98 µM [inhibitor, full curve, poor fit]",

Next compounds:

Compound | Potency | activity change, negative = inhibition
COc1cc(Nc2cc(C)nc3ncnn23)cc(OC)c1OC | inconclusive: 2.24 µM [inhibitor, full curve, poor fit] | 
Cc1ccc(-c2cc(C(=O)O)c3cccc(C)c3n2)cc1C | inconclusive: 39.8 µM [inhibitor, partial curve, poor fit] | 
COc1cc(C2CC(=O)N(CC(=O)Nc3ccccc3F)c3ccccc3S2)cc(OC)c1OC (centres undefined) | inconclusive: 89.1 µM [inhibitor, partial curve, poor fit] | 
Cc1ccc(-c2nnc(Nc3ccc(O)cc3)c3ccccc23)cc1S(=O)(=O)NCCO | inconclusive: 35.5 µM [inhibitor, single point] | 
CCN(CCNC(=O)c1cc2ccccc2oc1=O)c1cccc(C)c1 |  | inactive: -19.6%
O=C(NCC(c1cccs1)N1CCOCC1)c1ccc(Cl)s1 (centres undefined) | inconclusive: 28.2 µM [inhibitor, partial curve, poor fit] | 
COC(=O)c1sc2ccccc2c1S(=O)(=O)N1CCN(c2ccc(C(C)=O)cc2)CC1 | inconclusive: 89.1 µM [inhibitor, partial curve, poor fit] | 
O=C(Nc1ccc(F)cc1)N1CCCC(Cn2c(C3CC3)nc3cccnc32)C1 (centres undefined) |  | inactive: 5.05%
CCN(Cc1ccc(Cl)s1)C(=O)c1cnc(C)cn1 | inconclusive: 3.16 µM [inhibitor, single point] | 
CC(=O)Oc1c(-c2ccc(NC(=O)c3ccco3)cc2)c(-c2cccc(C)c2)nn1-c1cccc(F)c1 | inconclusive: 25.1 µM [inhibitor, full curve] | 
CCN(CC)CCNC(=O)c1ccc(Cl)c(S(=O)(=O)Nc2ccc(Cl)cc2)c1 | inconclusive: 100 µM [inhibitor, partial curve, poor fit] | 
CN1C[C@@H](NC(=O)c2ccco2)C[C@H]1c1nc(-c2ccc(F)cc2)no1 | inconclusive: 39.8 µM [inhibitor, full curve, poor fit] | 
O=C(Cn1c(=O)c2c(ncn2Cc2ccco2)n(Cc2ccccc2)c1=O)N1CCNC1=O | inconclusive: 79.4 µM [inhibitor, partial curve, poor fit] | 
COCCn1cnnc1SC(C)c1ccc(F)cc1 (centres undefined) | inconclusive: 10 µM [inhibitor, full curve] | 
C=C1N(S(=O)(=O)C(F)(F)F)CC[C@@]12c1ccccc1N(C)[C@@H]2c1cn(C)c2ccccc12 | inconclusive: 89.1 µM [inhibitor, single point] | 
Cc1cc(C)c2c(c1)/C(=N/NS(=O)(=O)c1ccccc1)CCC2 | inconclusive: 35.5 µM [inhibitor, single point] | 
CC(C)(C)c1cc(NCCCn2ccnc2)n2ncc(-c3ccc(Cl)cc3)c2n1 |  | inactive: -13%
O=S(=O)(Nc1c(O)ccc2ccccc12)c1ccc(F)cc1 | inconclusive: 1.78 µM [inhibitor, full curve, poor fit] | 
CN1C[C@@H](NC(=O)NC2CCCCC2)C[C@H]1c1nc(-c2cnccn2)no1 |  | inactive: 27% [at 176 µM]
Cc1cccc(N=c2oc3cc(O)ccc3cc2C(N)=O)c1 | inconclusive: 141 µM [inhibitor, single point] | 
